No constants are given. Whether binding was seen depends on the method and setting. Binding seen in cells or lysates may run through a third protein.
Target: PRAMEX1 (Prame like, X-linked 1) (mouse (endogenous in testis)) (UniProt F7ADI6)
Experiment: co-IP; anti-PRAMEX1 or anti-RARα antibody immobilised on protein A/G magnetic beads (Pierce Crosslink Magnetic IP/co-IP Kit); P7 testis proteins of WT, Pramex1 sKO and Pramel1 sKO mice, overnight at 4 °C; Western blot, band intensity relative to input (set as 1), n = 3

The chains behind the UniProt entries cited, without tags or fusion partners. Where a name states a change or a piece, a line headed by the entry shows the natural chain unless it says otherwise.
UniProt F7ADI6: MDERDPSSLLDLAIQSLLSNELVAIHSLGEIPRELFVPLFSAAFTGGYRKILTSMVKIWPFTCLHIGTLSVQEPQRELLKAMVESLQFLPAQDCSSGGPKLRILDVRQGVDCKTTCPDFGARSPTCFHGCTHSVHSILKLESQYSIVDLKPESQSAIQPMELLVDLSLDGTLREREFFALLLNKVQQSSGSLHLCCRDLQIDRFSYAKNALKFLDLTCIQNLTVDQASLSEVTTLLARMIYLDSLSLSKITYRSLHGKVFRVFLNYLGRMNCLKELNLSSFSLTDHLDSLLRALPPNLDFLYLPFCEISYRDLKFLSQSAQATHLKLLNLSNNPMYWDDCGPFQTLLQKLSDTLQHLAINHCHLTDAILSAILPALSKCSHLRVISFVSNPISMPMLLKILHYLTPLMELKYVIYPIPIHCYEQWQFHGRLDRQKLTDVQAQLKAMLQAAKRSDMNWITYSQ
UniProt Q9Z2C8: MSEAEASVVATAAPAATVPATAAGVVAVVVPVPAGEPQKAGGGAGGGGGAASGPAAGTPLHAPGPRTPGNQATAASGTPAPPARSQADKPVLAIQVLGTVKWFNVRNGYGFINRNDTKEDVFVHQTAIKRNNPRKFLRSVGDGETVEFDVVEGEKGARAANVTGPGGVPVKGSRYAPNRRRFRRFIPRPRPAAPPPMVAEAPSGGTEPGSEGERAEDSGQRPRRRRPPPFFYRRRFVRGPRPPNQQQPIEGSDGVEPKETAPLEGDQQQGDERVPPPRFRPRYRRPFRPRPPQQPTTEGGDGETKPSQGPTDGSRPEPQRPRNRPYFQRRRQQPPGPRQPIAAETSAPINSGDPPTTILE

**Q.** “Y-Box Binding Protein 2 (YBX2) (from UniProt Q9Z2C8 1-360)” was tested. Which binding did it give?
**A.** no binding
